The nature of this data set: Microtensile bond strength (μTBS) with thermal cycling for bonding durability. The settings on record: experimental and commercial adhesives with approximately 0.25-0.5 wt % additive, before thermal cycling.

Some results are limits rather than exact numbers.

`C=C(C)C(=O)Oc1ccc(/N=N/c2cc[n+](CCCCCCCCCCCCCCCC)cc2)cc1.[Br-]` [Azo-QPS-C16, (E)-1-hexadecyl-4-((4-(methacryloyloxy)phenyl)diazenyl)-pyridinium bromide]: the μTBS is > 35 MPa.

The values above are taken from patent US20250360057A1, “ENHANCING DENTIN BONDING DURABILITY USING QUATERNARY PYRIDINIUM SALTS” (ADA Science and Research Institute LLC, priority 2022, published 2025).
